According to patent US7186825B2, “Conformationally restricted polyamine analogs as disease therapies” (Cellgate, Inc., priority 1999, dated 2007):
Some entries share one result that the patent states for a list of compounds. For at least one compound, name, drawing or mass did not settle the structure.

Columns and labels:
Format in all cases: cell-based
[1] = system: human breast cancer cells MCF7; assay: MTT assay, survival/growth of cultured human breast cancer cells MCF7; conditions: figure legends, survival of cultured MCF7 cells, six days after drug treatment, read-out: ED50 (the source's name)
Procedure: (§1) As shown in Table 3 and FIGS. 1–32, several novel conformationally restricted polyamine analogs were tested for anti-proliferative properties against cancer cells.
(§2) Human breast cancer cell line MCF7 was grown in Richter's Improved Modified Eagle's Medium supplemented with 10% fetal bovine serum (FBS) and 2.2 g/L sodium bicarbonate. Human brain tumor cell line U251 MG-NCI was grown in Dulbecco's Modified Eagle's Medium supplemented with 10% FBS. Human lung cancer cell line A549 was grown in Ham's F-12K medium (Cellgro, Mediatech, Inc., VA), supplemented with 10% FBS and 2 mM L-glutamine. Human colon cancer cell line HT29 was cultured in McCoy's 5A medium (Gibco, BRL, Gaithersburg, Md.) supplemented with 10% FBS. Human prostate cancer cell lines PC-3, LNCAP and DuPro were grown in RPMI 1640 Medium (Cellgro, Mediatech, Inc., VA) supplemented with 10% FBS. Another human prostate cancer cell line DU145 was grown in Dulbecco's Modified Eagle's Medium (Gibco, BRL, Gaithersburg, Md.) supplemented with 5% FBS. The A549, MCF7, PC3, LNCAP and DuPro cell lines were cultured in 100 units/mL penicillin and 100 μg/mL streptomycin. HT29 and U251MG cell lines were grown in 50 μg/mL gentamycin (Gibco, BRL, Gaithersburg, Md.). DU145 cell line was maintained in 1% antibitic-antimycotic solution (Sigma, St. Louis, Mo.). The cell cultures were maintained at 37° C. in 5% CO2/95% humidified air. DuPro cells were obtained from M. Eileen Dolan, University of Chicago. All other cells are available from the American Type Culture Collection, Rockville, Md.
A conventional MTT assay was used to evaluate percent cell survival. Exponentially growing monolayer cells were plated in 96-well plates at a density of 500 cells per well and allowed to grow for 24 hours. Serial dilutions of the drugs were added to the wells. Six days after drug treatment, 25 μl of MTT solution (5 mg/ml) was added to each well and incubated for 4 hours at 37° C. Then 100 μl of lysis buffer (20% sodium dodecyl sulfate, 50% DMF, and 0.8% acetic acid, pH 4.7) was added to each well and incubated for an additional 22 hours. A microplate reader (“EMAX”-brand, Molecular Devices, Sunnyvale, Calif.) set at 570 nm was used to determine the optical density of the cultures. Results are expressed as a ratio of the optical density in drug-treated wells to the optical density in wells treated with vehicle only.

[2] = system: human prostate cancer cells PC3; assay: MTT assay, survival/growth of cultured human prostate cancer cells PC3; conditions: figure legends, survival of cultured PC3 cells, six days after drug treatment, read-out: ED50 (the source's name)
Procedure: as §2
A conventional MTT assay was used to evaluate percent cell survival. Exponentially growing monolayer cells were plated in 96-well plates at a density of 500 cells per well and allowed to grow for 24 hours. Serial dilutions of the drugs were added to the wells. Six days after drug treatment, 25 μl of MTT solution (5 mg/ml) was added to each well and incubated for 4 hours at 37° C. […] A microplate reader (“EMAX”-brand, Molecular Devices, Sunnyvale, Calif.) set at 570 nm was used to determine the optical density of the cultures. Results are expressed as a ratio of the optical density in drug-treated wells to the optical density in wells treated with vehicle only. […]

[3] = system: human lung cancer cells A549; assay: MTT assay, survival/growth of cultured human lung cancer cells A549; conditions: figure legends, survival of cultured A549 cells, six days after drug treatment, read-out: ED50 (the source's name)
Procedure: as §1, §2
A conventional MTT assay was used to evaluate percent cell survival. Exponentially growing monolayer cells were plated in 96-well plates at a density of 500 cells per well and allowed to grow for 24 hours. Serial dilutions of the drugs were added to the wells. […] A microplate reader (“EMAX”-brand, Molecular Devices, Sunnyvale, Calif.) set at 570 nm was used to determine the optical density of the cultures. Results are expressed as a ratio of the optical density in drug-treated wells to the optical density in wells treated with vehicle only.

[4] = system: human brain tumor cells U251 MG NCI; assay: MTT assay, survival/growth of cultured human brain tumor cells U251 MG NCI; conditions: figure legends, survival of cultured U251 MG NCI cells, six days after drug treatment, read-out: ED50 (the source's name)
Procedure: as §2, with “HT29 and U251MG cell lines were grown in 50 μg/mL gentamycin (Gibco, BRL, Gaithersburg, Md.). DU145 cell line was maintained in 1% antibitic-antimycotic solution (Sigma, St. Louis, Mo.). The cell cultures were maintained at 37° C. in 5% CO2/95% humidified air. DuPro cells were obtained from M. Eileen Dolan, University of Chicago. All other cells are available from the American Type Culture Collection, Rockville, Md.” left out
A conventional MTT assay was used to evaluate percent cell survival. […] A microplate reader (“EMAX”-brand, Molecular Devices, Sunnyvale, Calif.) set at 570 nm was used to determine the optical density of the cultures. Results are expressed as a ratio of the optical density in drug-treated wells to the optical density in wells treated with vehicle only.

SMILES | EC50 [1] [µM] | EC50 [2] [µM] | EC50 [3] [µM] | EC50 [4] [µM]
CCNCCCCNCC1CCC1CNCCCCNCC (centres unmarked) [SL-11100] | > 31.2 |  |  | 
CCNCCCNCc1ccccc1CNCCCNCC [SL-11094] | > 31.2 | > 31.2 | > 31.2 | > 31.2
CCNCCCCNCC1CC1CNCCCCNCC (centres unmarked) [SL-11098] | > 31.2 |  |  | 
CCNC/C=C\CNC/C=C\CNCCCCNCC [SL-11119] |  | > 31.2 |  | 
CCNCCCCNCc1ccccc1CNCCCCNCC [SL-11104] | > 31.2 | > 31.2 | > 31.2 | 
CCNCCCCNCCCCNCCCCNCC [BE-444, N1,N14-bis(ethyl) homospermine, reference compound] | > 31.2 |  |  | 
CCNCCCCNC/C=C\CNCCCCNCC [SL-11102] | > 31.2 |  |  | 
CCNC/C=C\CNC/C=C\CNC/C=C\CNCC [SL-11108] | > 31.2 |  | > 31.2 | 
